Test results published in publication doi:10.1101/2024.12.17.628619 (bioRxiv, 2024).
Results are given in words; binding and its absence hold for the method and conditions named. For some assays here: In cells and extracts the contact can be indirect. Some entries that bind do so weakly or less than the wild type.

Protein sequences, listed by entry. Tags and fused reporters are not part of them. Lines headed by an entry give the natural chain unless they say otherwise; changes in a name come on top. Chains listed by the source or under a name are the forms on record and can include a tag or linker. Residues count along the entry.
GST-CDK4EE (CDK4 with G43-G47 replaced with Glu-Glu) (P11802, form named): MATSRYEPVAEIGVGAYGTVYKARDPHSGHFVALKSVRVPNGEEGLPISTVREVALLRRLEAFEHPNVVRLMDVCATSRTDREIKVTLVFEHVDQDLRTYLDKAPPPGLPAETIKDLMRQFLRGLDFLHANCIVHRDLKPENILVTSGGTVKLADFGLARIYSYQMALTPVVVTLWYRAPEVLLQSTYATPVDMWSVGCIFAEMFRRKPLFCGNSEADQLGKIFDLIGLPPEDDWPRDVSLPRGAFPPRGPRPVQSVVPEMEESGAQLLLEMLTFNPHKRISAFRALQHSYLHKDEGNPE
MBP-AMBRA1^WD40 (residues M1-N204 directly fused to S853-G1044), wild type (Q9C0C7, form named): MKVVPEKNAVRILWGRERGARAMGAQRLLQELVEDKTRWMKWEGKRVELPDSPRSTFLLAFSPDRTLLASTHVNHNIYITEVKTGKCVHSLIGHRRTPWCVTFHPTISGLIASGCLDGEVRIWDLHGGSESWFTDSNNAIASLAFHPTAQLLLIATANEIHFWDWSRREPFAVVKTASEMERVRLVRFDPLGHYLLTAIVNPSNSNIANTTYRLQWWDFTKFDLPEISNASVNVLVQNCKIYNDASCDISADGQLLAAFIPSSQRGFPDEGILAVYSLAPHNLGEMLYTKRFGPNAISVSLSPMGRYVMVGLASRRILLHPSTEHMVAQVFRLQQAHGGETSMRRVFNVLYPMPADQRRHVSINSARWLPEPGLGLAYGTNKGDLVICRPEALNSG
UniProt P24385: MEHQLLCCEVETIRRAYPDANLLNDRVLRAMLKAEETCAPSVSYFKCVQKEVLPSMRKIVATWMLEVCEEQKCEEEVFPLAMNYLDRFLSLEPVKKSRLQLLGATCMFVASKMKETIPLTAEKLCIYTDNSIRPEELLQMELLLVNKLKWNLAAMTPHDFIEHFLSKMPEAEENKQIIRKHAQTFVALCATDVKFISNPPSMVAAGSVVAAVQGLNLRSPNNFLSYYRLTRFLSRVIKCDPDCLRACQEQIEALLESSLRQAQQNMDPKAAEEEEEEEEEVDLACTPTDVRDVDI
UniProt P30279: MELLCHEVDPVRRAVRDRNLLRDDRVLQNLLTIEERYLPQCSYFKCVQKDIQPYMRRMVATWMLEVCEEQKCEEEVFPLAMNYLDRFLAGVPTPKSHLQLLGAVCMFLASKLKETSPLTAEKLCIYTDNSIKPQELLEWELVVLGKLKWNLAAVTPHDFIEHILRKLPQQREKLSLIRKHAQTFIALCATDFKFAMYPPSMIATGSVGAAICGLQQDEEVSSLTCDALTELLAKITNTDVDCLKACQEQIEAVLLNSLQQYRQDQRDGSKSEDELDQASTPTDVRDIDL

Key:
[1] = target: GST-CDK4EE (CDK4 with G43-G47 replaced with Glu-Glu) (human) (UniProt P11802); assay: tandem affinity co-purification
[2] = target: MBP-AMBRA1^WD40 (residues M1-N204 directly fused to S853-G1044), wild type (human) (UniProt Q9C0C7); assay: pull-down

Molecule: TSF-cyclin D1 T286A (from UniProt P24385 1-295)
- binding [1]: binds

Molecule: TSF-cyclin D3, full length (from UniProt P30281 1-292)
- binding [2]: binds
- binding [1]: binds

Molecule: TSF-cyclin D2, full length (from UniProt P30279 1-289)
- binding [2]: binds

B1: TSF-cyclin D3 T283A (protein, UniProt P30281 1-292)
chain: MELLCCEGTRHAPRAGPDPRLLGDQRVLQSLLRLEERYVPRASYFQCVQREIKPHMRKMLAYWMLEVCEEQRCEEEVFPLAMNYLDRYLSCVPTRKAQLQLLGAVCMLLASKLRETTPLTIEKLCIYTDHAVSPRQLRDWEVLVLGKLKWDLAAVIAHDFLAFILHRLSLPRDRQALVKKHAQTFLALCATDYTFAMYPPSMIATGSIGAAVQGLGACSMSGDELTELLAGITGTEVDCLRACQEQIEAALRESLREASQTSSSPAPKAPRGSSSQGPSQTSAPTDVTAIHL
- binding [1]: binds
